Data as given in PubChem BioAssay AID1259424 (University of Nebraska Medical Center, 2018)
The whole screen tested about 14,000 reagents; this is an unselected part. 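Higher correlation or smaller distance means closer resemblance to KSR1 loss; control wells, including KSR1 knockdowns, recur on many plates.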 Not all columns of the deposit are shown. Not given: the time to read-out.

- Screen: 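Find knockdowns that reproduce the expression shifts seen after KSR1 loss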 (primary screen)
- Cells: human HCT116 colon cancer cells
- Reagent: siRNA pool against human genes, 50 nM
- Read-out: 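Log2 levels of six mRNAs (branched-DNA multiplex), adjusted by two reference genes and the non-targeting median, then scored against the average KSR1 knockdown pattern as Pearson r and euclidean distance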
- Scale: mean correlation with KSR1 profile: higher = expression change more like KSR1 knockdown

TOP1 [SID363994405] | mean correlation with KSR1 profile: 0.559
SCUBE2 [SID364001924] | mean correlation with KSR1 profile: 0.581
ADCK2 [SID364004406] | mean correlation with KSR1 profile: -0.327
EXOC5 [SID363997336] | mean correlation with KSR1 profile: -0.0318
ICA1L [SID364004563] | mean correlation with KSR1 profile: 0.12
ICA1L [SID364004910] | mean correlation with KSR1 profile: 0.208
FAM234A [SID364003758] | mean correlation with KSR1 profile: 0.731
CHCHD2 [SID363999904] | mean correlation with KSR1 profile: 0.931
RPE65 [SID363991661] | mean correlation with KSR1 profile: 0.916
DUSP13B [SID364000064] | mean correlation with KSR1 profile: 0.349
CYREN [SID364002694] | mean correlation with KSR1 profile: -0.351
ATOSB [SID364003295] | mean correlation with KSR1 profile: 0.246
BARX1 [SID364002139] | mean correlation with KSR1 profile: 0.284
TXLNGY [SID364004067] | mean correlation with KSR1 profile: 0.901
SCAND2P [SID364002289] | mean correlation with KSR1 profile: -0.575
SIDT1 [SID364000453] | mean correlation with KSR1 profile: -0.436
CEBPB [SID363996119] | mean correlation with KSR1 profile: -0.53
MAVS [SID364001801] | mean correlation with KSR1 profile: -0.14
PDK3 [SID363996301] | mean correlation with KSR1 profile: 0.566
GARNL3 [SID364003881] | mean correlation with KSR1 profile: 0.792
RTTN [SID364004835] | mean correlation with KSR1 profile: 0.00775
CDK11B [SID363993006] | mean correlation with KSR1 profile: -0.00895
POLR2G [SID363993856] | mean correlation with KSR1 profile: -0.179
STXBP6 [SID363998635] | mean correlation with KSR1 profile: 0.371
BBLN [SID364002760] | mean correlation with KSR1 profile: -0.615
CDCA3 [SID364003588] | mean correlation with KSR1 profile: 0.63
NALF2 [SID363999647] | mean correlation with KSR1 profile: 0.844
IVD [SID363993425] | mean correlation with KSR1 profile: -0.118

Ordered by “mean correlation with KSR1 profile” (low to high): some entries from above
MAVS [SID364001801] | mean correlation with KSR1 profile: -0.14
RTTN [SID364004835] | mean correlation with KSR1 profile: 0.00775
PDK3 [SID363996301] | mean correlation with KSR1 profile: 0.566
GARNL3 [SID364003881] | mean correlation with KSR1 profile: 0.792
